No constants are given. Whether binding was seen depends on the method and setting. Binding seen in cells or lysates may run through a third protein. Some binding calls cover weakened binding; strength is not graded here. Where a sequence is shown, tags or fusion partners need not be part of it.
Each substance was assayed against V5-tagged RE-1 silencing transcription factor (REST) (UniProt Q13127) (assay: co-IP; V5 antibody-conjugated beads mixed with lysates of HEK293FT cells transfected with pcDNA_V5 or pcDNA_REST-V5; western blot of endogenous partners; lysis buffer 50 mM Tris-HCl pH 7.4, 150 mM NaCl, 5 mM EDTA, 0.2% TritonX-100, 15 U/ml DNAse I).

Amino acid sequences for entries named in this document (tags omitted).
UniProt P06748: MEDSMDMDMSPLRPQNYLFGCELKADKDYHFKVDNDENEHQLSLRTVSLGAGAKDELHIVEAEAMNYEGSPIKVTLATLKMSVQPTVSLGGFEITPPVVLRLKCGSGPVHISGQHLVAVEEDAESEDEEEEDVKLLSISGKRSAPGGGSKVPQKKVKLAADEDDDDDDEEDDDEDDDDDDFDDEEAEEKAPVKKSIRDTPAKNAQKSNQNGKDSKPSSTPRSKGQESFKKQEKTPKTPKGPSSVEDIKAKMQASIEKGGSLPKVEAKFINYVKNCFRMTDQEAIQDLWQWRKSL
UniProt P09874: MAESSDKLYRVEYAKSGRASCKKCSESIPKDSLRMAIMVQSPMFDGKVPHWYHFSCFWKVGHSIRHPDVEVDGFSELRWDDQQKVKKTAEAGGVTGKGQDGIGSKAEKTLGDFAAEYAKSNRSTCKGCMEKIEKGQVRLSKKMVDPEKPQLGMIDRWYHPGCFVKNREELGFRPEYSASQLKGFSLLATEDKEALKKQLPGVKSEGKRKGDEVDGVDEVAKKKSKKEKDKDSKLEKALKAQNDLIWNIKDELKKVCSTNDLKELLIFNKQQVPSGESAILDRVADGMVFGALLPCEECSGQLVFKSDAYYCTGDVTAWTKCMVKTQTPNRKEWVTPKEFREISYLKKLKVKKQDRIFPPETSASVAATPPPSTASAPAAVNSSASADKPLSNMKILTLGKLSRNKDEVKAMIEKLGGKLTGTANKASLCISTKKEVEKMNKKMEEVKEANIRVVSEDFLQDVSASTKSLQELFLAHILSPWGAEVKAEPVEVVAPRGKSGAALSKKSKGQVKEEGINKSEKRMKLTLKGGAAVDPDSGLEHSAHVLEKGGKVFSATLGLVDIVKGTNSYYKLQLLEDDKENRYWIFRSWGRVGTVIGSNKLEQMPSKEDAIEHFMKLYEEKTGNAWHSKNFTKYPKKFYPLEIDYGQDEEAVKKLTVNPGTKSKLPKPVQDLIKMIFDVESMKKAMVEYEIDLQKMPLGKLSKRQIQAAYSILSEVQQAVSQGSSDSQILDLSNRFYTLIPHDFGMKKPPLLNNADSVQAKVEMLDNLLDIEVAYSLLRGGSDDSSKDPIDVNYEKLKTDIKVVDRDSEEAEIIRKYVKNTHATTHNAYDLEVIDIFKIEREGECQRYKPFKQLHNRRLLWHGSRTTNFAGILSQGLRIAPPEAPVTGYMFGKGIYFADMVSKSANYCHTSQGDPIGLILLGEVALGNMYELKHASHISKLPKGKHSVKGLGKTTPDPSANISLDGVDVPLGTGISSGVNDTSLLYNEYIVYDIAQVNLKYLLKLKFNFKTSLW
UniProt Q13263: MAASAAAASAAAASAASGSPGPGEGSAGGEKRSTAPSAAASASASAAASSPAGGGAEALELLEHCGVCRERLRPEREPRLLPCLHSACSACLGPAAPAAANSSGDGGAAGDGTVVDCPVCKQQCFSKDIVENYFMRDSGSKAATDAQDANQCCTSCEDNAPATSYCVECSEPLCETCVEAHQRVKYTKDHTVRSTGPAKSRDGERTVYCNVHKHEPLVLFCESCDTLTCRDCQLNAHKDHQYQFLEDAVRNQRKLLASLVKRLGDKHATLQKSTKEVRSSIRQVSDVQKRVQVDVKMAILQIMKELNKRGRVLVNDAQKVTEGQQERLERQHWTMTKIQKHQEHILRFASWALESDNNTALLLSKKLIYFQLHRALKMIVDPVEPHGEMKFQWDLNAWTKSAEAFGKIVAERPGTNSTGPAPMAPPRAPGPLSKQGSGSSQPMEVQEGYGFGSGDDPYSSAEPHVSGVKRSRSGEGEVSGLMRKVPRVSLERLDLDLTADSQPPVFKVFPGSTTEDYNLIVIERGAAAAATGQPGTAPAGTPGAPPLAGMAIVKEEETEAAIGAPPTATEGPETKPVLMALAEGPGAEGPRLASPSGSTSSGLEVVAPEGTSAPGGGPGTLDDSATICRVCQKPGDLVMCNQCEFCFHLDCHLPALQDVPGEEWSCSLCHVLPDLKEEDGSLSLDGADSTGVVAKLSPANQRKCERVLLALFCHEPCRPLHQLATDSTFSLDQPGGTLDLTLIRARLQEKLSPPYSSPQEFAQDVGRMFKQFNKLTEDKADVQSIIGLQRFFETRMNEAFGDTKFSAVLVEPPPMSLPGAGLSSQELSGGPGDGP

| binding | Substance |
| --- | --- |
| binds | histone deacetylase 5 (HDAC5) (from UniProt Q9UQL6 1-1122) |
| binds | nucleophosmin1 (NPM1) (from UniProt P06748 1-294) |
| binds | poly[ADP-ribose]polymerase1 (PARP1) (from UniProt P09874 1-1014) |
| binds | Tripartite motif-containing 28 (TRIM28) (from UniProt Q13263 1-835) |

From paper PMC5157023
